Consider 2 molecules from paper PMC6909106.

Sequences of proteins named here, by UniProt entry; tags and fusion partners are left off.
UniProt Q13131: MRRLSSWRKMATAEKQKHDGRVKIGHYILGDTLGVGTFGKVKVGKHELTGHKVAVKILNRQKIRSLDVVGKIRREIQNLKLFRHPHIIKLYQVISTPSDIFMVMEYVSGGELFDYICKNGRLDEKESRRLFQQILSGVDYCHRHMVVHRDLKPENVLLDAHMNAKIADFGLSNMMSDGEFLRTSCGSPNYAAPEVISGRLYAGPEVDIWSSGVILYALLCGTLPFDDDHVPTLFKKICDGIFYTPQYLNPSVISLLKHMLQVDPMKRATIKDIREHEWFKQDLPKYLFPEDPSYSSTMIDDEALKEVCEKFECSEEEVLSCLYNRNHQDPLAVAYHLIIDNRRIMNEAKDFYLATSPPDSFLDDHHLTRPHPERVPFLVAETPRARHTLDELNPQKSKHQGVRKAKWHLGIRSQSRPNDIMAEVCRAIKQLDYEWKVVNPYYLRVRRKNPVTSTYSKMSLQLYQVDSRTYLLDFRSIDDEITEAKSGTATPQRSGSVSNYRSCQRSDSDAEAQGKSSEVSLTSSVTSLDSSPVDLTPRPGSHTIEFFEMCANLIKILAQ
UniProt Q9Y297: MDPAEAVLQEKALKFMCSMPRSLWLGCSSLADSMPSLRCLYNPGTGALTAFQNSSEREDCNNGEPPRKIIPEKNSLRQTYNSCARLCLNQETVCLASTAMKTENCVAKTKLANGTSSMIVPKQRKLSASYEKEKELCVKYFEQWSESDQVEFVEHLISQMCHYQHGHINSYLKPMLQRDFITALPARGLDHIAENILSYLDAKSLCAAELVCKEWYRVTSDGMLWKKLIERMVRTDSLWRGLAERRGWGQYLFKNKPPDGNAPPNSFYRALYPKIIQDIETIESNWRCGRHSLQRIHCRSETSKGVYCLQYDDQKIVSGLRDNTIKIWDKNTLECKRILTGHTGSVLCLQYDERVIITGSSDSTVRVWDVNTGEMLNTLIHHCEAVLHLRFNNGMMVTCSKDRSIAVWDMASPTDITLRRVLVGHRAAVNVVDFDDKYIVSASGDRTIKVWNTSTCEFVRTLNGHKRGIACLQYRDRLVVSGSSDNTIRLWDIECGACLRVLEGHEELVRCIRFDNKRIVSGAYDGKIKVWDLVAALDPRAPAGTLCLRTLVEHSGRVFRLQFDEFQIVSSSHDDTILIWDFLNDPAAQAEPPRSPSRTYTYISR

These are yes or no findings as the source states them, for the method shown. In cells and extracts the contact can be indirect. Some binding calls cover weakened binding; strength is not graded here. For some assays here: Tags and fused reporters may be left off the sequences shown.

Assay [1] addresses T1, EGFP-WT-Nrf2 (nuclear factor (erythroid-derived 2)-like 2, EGFP-tagged wild type) (human) (UniProt Q16236).
T1 sequence: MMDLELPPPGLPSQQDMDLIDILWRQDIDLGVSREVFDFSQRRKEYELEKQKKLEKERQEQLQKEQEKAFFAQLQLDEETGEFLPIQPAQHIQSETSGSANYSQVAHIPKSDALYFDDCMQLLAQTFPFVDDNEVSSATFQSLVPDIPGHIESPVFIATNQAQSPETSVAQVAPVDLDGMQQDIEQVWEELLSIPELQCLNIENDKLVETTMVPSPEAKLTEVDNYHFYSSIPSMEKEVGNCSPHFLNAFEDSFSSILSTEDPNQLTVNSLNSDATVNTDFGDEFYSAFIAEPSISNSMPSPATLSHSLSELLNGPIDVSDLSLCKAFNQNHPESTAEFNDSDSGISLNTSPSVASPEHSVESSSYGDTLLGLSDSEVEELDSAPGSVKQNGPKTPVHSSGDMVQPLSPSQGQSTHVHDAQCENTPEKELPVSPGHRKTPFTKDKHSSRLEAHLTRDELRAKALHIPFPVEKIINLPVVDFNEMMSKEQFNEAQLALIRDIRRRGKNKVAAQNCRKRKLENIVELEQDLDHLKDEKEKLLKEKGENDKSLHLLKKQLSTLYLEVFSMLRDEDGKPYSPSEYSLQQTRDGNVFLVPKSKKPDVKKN
The experiment in a line: co-IP; GFP-Trap pulldown of EGFP-WT-Nrf2, EGFP-TM-Nrf2 or EGFP from lysates of HEK cells co-transfected with myc-β-TrCP; cells treated with DMSO or A769662 (50 μM) 1 h before MG132 (20 μM, 3 h); immunoblots for myc and GFP, densitometry of myc/GFP signal. (In general: A western blot detects proteins with antibodies after separation by electrophoresis.)

Assay [2] deals with AMPK (bait of the reverse co-immunoprecipitation, Supplemental Fig. 1C) (UniProt Q13131). Put plainly: co-IP; reverse co-immunoprecipitation: specific pulldown of AMPK from cell lysates, detection of Nrf2 (Supplemental Fig. 1C).

Turning to “myc-tagged β-TrCP (β-transducin repeat containing protein 1) (from UniProt Q9Y297 1-605)”, in assay [1], the binding result is on record as “binds”.

B1: Nrf2 (prey of the reverse co-immunoprecipitation, Supplemental Fig. 1C) (protein, UniProt Q16236 1-605)
chain: T1 sequence
Turning to B1, in assay [2], the binding result is reported as “binds”.
